This assay has as its target GI-Gal4 (Arabidopsis thaliana; yeast) (UniProt Q9SQI2). As to the kind of experiment: inferred from UAS-luciferase reporter in HEK 293T cells without light.

Sequences of proteins named here, by UniProt entry; tags and fusion partners are left off. A change or cut given only in a name is not applied to a line headed by its entry.
UniProt Q9SQI2: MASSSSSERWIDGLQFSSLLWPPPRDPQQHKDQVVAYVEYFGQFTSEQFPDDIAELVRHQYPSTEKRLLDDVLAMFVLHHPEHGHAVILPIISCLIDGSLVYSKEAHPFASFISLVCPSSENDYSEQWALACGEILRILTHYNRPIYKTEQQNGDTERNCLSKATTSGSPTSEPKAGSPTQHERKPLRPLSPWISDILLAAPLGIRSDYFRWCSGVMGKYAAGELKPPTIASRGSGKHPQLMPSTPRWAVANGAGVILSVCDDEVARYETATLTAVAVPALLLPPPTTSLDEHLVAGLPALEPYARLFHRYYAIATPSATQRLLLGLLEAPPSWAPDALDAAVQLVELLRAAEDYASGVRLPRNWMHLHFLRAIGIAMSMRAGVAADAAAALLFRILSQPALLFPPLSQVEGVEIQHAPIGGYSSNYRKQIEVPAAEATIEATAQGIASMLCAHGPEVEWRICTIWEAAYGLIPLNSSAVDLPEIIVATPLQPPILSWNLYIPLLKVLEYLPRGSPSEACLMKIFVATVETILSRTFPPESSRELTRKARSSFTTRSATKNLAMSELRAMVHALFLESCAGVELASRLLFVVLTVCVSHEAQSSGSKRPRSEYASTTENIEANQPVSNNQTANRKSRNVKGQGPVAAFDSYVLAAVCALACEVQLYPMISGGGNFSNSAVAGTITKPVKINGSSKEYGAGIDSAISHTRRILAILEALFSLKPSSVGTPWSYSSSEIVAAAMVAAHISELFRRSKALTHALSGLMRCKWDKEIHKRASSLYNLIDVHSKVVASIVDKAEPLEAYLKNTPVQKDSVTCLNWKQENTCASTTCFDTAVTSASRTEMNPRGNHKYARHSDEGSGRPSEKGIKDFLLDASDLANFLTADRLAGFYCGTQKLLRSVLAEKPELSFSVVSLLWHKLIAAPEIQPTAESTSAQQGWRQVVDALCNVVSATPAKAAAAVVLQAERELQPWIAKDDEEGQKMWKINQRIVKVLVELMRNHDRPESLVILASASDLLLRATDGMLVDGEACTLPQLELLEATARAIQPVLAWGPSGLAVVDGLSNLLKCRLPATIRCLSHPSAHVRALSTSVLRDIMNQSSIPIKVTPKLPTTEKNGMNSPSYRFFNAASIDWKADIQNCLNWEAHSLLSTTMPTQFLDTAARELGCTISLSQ
UniProt Q9C9W9: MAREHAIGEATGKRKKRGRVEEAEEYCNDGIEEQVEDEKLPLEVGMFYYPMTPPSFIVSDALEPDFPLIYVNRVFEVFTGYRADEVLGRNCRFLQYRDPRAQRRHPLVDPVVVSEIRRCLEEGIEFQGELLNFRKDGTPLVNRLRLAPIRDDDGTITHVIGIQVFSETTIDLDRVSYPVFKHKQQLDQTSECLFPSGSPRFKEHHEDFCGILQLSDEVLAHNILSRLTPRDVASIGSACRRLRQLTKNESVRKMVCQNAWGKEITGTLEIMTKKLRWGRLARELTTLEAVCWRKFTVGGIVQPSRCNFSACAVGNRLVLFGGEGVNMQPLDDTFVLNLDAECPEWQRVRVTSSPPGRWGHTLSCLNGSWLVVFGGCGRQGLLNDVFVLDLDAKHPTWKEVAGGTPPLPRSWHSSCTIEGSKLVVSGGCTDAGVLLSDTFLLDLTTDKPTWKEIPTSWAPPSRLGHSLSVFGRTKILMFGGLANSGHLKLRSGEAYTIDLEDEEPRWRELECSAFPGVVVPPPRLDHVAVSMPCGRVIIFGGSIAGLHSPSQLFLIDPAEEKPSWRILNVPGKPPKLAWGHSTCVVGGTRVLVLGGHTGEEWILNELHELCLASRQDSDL

These are yes or no findings as the source states them, for the method shown. Some entries that bind do so weakly or less than the wild type.

Turning to “HA-N-LOV-VP16 WT (from UniProt Q9C9W9 1-174)”, the binding entry is listed as “binds”.
